# Measured values taken from PubChem BioAssay AID2685 (National Center for Advancing Translational Sciences (NCATS), 2010).
# Some of the results follow. These are further read-outs of the screen, such as a control signal, another cell line or another target. No call is given for them. Compounds called inactive in the main read-out are mostly missing here. Potencies come from curve fits of mixed quality, noted in brackets.
# Test: qHTS Assay for Lipid Storage Modulators in Drosophila S3 Cells;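 as to cell number change: cells counted by Cell Tracker Red CMTPX staining in the red channel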
# Details: BODIPY lipid droplet fluorescence, 18-24 h; for cell number change: measured here: cell count max response, cells fed with added oleic acid
# In short: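 Drosophila S3 cells got compounds at several concentrations plus oleic acid (400 uM solution). Laser-scanning cytometry with 488 nm excitation read lipid droplets at 500-530 nm and cells at 575-640 nm. Percent activity was relative to 20 uM Triacsin C.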
# [1] = measured here: cell number channel AC50, cells fed with added oleic acid
# [2] = measured here: lipid fluorescence (Fed channel) AC50, cells fed with added oleic acid
Compound,cell number change,AC50 [1],AC50 [2]
CN(CC(=O)Nc1cccc(F)c1)C(=O)C1CCN(C(=O)c2ccc(Cl)cc2)CC1,8.82%,–,–
O=S(=O)(Nc1ccc2oc(-c3ccccc3)nc2c1)c1ccccc1,-43.7%,"10.3 µM [falling, single point]",–
O=c1c2c(nc3n1CCS3)c1cc(F)ccc1n2Cc1cc(=O)n2cc(Cl)ccc2n1,14.3%,–,"6.51 µM [rising, partial curve, poor fit]"
COc1ccc(CN2CCN(Cc3cc4ccccc4o3)CC2CCO)cc1C (stereo not drawn),-19.2%,–,"20.6 µM [falling, single point]"
Cn1c(=O)cc(SCC(=O)Nc2cccnc2)c2ccccc21,-32.4%,"3.66 µM [falling, full curve]","5.8 µM [falling, single point]"
CCOc1ccccc1C(=O)Nc1ccc(S(=O)(=O)N2CCOCC2)cc1,-6.86%,–,"3.26 µM [rising, partial curve]"
COc1ccc(-n2nc3c(N4CCC(C(=O)NCc5cccc(C)c5)CC4)nnc(C)c3c2C)cc1,-6.46%,"1.46 µM [rising, full curve, poor fit]","29.1 µM [falling, single point]"
COc1ccc(C)cc1N(CC(=O)N1CCc2ccccc2C1)S(C)(=O)=O,-33.7%,"14.6 µM [falling, partial curve, poor fit]",–
CCn1c(/C=N/c2nc3ccccc3n2C)nc2ccccc21,8.93%,–,"18.4 µM [rising, single point]"
O=C(Nc1ccc(Cl)cc1)N1CCc2[nH]c3ccccc3c2C1,-11.3%,–,"29.1 µM [falling, single point]"
Cc1cccc(N2CCN(C(=O)CSc3nc4ccccc4nc3N3CC(C)OC(C)C3)CC2)c1C (stereo not drawn),38.3%,"23.1 µM [rising, partial curve, poor fit]","29.1 µM [rising, partial curve]"
c1cncc(-c2nc3cc4ccccc4cc3[nH]2)c1,13.8%,–,"20.6 µM [falling, single point]"
COc1cc(C#Cc2c(-c3cncn3C)n(C)c3ccc(-c4ccc(OC)nc4)cc23)cc(OC)c1,-2.91%,"1.16 µM [falling, single point]",–
COc1ccccc1C(=O)NC(=S)Nc1ccc(S(=O)(=O)N2CCN(C)CC2)cc1,-12%,–,"0.58 µM [rising, partial curve]"
Cc1cc(-c2n[nH]c(=S)n2/N=C/c2ccccc2[N+](=O)[O-])n[nH]1,-20.1%,–,"0.58 µM [rising, full curve, poor fit]"
COCCNC(=O)c1ccc2c(=O)n(Cc3ccco3)c(SCC(=O)NC3CCCC3)nc2c1,–,"6.51 µM [rising, partial curve]",–
CCOc1ccc(CC(=O)NNC(=O)NC2CCCCC2)cc1,-43.1%,"29.1 µM [falling, single point]","20.6 µM [falling, single point]"
CCCCC(=O)Nc1nc2c(s1)COc1ccccc1-2,-2.31%,–,–
CCCCn1cnc2c1c(=O)n(CC(=O)c1cc(C)n(C)c1C)c(=O)n2CC(C)C,65.3%,"29.1 µM [rising, single point]",–
O=C(NCc1ccccc1)C(c1c(F)cccc1Cl)N(C(=O)c1csnn1)C1CC1 (stereo not drawn),0.806%,–,–
Nc1nc(C(F)(F)F)c(Br)c(=O)n1N,-12.2%,–,–

# Entries of single compounds, looked up by structure:
# O=c1c2c(nc3n1CCS3)c1cc(F)ccc1n2Cc1cc(=O)n2cc(Cl)ccc2n1 in the list: cell number change: 14.3%; AC50 [2]: 6.51 µM [rising, partial curve, poor fit]
# COc1ccc(C)cc1N(CC(=O)N1CCc2ccccc2C1)S(C)(=O)=O in the list: cell number change: -33.7%; AC50 [1]: 14.6 µM [falling, partial curve, poor fit]
# O=S(=O)(Nc1ccc2oc(-c3ccccc3)nc2c1)c1ccccc1 in the list: cell number change: -43.7%; AC50 [1]: 10.3 µM [falling, single point]
# O=C(Nc1ccc(Cl)cc1)N1CCc2[nH]c3ccccc3c2C1 in the list: cell number change: -11.3%; AC50 [2]: 29.1 µM [falling, single point]

# Next entries follow:

Compound,cell number change,AC50 [1],AC50 [2]
Cc1cc(=O)oc2cc3c(cc12)OCCO3,4.28%,–,"14.6 µM [falling, partial curve]"
CC(=O)Nc1ccc(CN2CCCC(C(=O)c3cccc(C(F)(F)F)c3)C2)cc1 (stereo not drawn),2.35%,–,–
Nc1ccn(Cc2ccc(F)cc2)n1,11.5%,–,–
Nc1nnc(SCC(=O)OCc2ccccc2)s1,-4.16%,–,"0.00517 µM [falling, full curve, poor fit]"
Cc1cc(C)cc(NC(=O)CSc2nc3nc(C)cc(C)c3c(=O)[nH]2)c1,10.8%,–,"1.3 µM [rising, full curve, poor fit]"
CCN(CC)CCCNC(=O)C(C)n1nc(C)c2sc3ccccc3c2c1=O (stereo not drawn),-58.4%,"5.8 µM [falling, full curve]",–
O=C(c1cccs1)c1coc2ccc(O)cc12,-44.7%,"2.06 µM [falling, full curve]",–
Cc1ccc(C)c(NC(=O)CCC(=O)NNS(=O)(=O)c2ccc(Cl)cc2)c1,-34%,"3.66 µM [falling, full curve]","0.326 µM [falling, full curve]"
Cc1cc(-c2ccccc2)oc(=O)c1NC(=O)c1ccccc1,-11.1%,–,"35.5 µM [falling, single point]"
COc1ccccc1/C=C/C(=O)N1CCc2cc(OC)c(OC)cc2C1C (stereo not drawn),-6.88%,–,"6.51 µM [falling, single point]"
COC(=O)C1=C(C(=O)OC)[C@@H]2N(C)c3ccccc3[C@@]23C[C@@H](C(=O)OC)N(C(=O)c2cc(C)oc2C)C3=N1,-66.3%,"4.11 µM [falling, partial curve]","2.59 µM [falling, full curve]"
O=C(/C=C/c1c(F)cccc1Cl)Nc1ccc(S(=O)(=O)Nc2ncccn2)cc1,3.47%,–,"35.5 µM [rising, single point]"
C/C(=N/O)c1no[n+]([O-])c1/C(C)=N\O,17.6%,–,"3.66 µM [falling, single point]"
O=C(COc1ccc(C(=O)c2ccccc2)cc1)NC1CCCCCC1,0.585%,"1.46 µM [falling, partial curve]","23.1 µM [falling, single point]"
CC(C)Nc1nc(SC(C)C(=O)Nc2ccccc2)nc(N(C)C)n1 (stereo not drawn),–,–,"0.731 µM [falling, full curve]"
CCCCCCCCCn1cc(C(C)=O)c(=O)[nH]c1=O,–,"0.58 µM [falling, single point]",–
COc1ccccc1C1=Nn2c(nnc2C2CCCCC2)SC1,-11.4%,–,"2.31 µM [rising, partial curve]"
CC1(C2CC(C(F)(F)F)n3nc(C(=O)O)cc3N2)CC1 (stereo not drawn),-15.6%,–,"29.1 µM [falling, single point]"
CC(=O)c1ccc(N2CCN(C(=O)c3ccc4nc[nH]c4c3)CC2)cc1,31.5%,"11.6 µM [rising, partial curve, poor fit]","9.2 µM [rising, partial curve, poor fit]"
Cn1c2ccccc2c2ncn(CCC3=CCCCC3)c(=O)c21,-0.908%,–,–
COCCCNC(=O)c1cc2c(=O)n(C)c3ccccc3c2n1C,–,–,"2.31 µM [rising, single point]"

Compound,cell number change,AC50 [1],AC50 [2]
C=CCSc1nc2c(c(=O)[nH]c(=O)n2C)n1CC,–,"6.51 µM [rising, partial curve, poor fit]",–
NC(=O)C1CCN(CC(O)COCc2ccccc2Cl)CC1 (stereo not drawn),6.76%,–,"0.58 µM [rising, single point]"
CCOc1ccc(N=Nc2ccc(O)c3ncccc23)cc1,-7.67%,–,"18.4 µM [rising, partial curve, poor fit]"
O=C(C1CCCO1)N1CCN(S(=O)(=O)c2cc(C(F)(F)F)ccc2Cl)CC1 (stereo not drawn),-26.9%,–,–
C/C(=N\NC(=O)c1nnn(-c2nonc2N)c1-c1cccs1)c1ccc(O)cc1,-3.54%,–,"6.51 µM [falling, single point]"
CCCCC(=O)Nc1cnc(NC(=O)c2ccco2)cc1C,13.2%,–,"18.4 µM [rising, single point]"
Cc1ccc(NC(=O)Nc2cccs2)cc1,10.6%,–,"6.51 µM [rising, single point]"
COc1cc2c(cc1NC(=O)C(c1ccccc1)c1ccccc1)CCCC2,74.9%,–,"0.651 µM [rising, full curve]"
Cc1ccc(CNC(=S)N2CCOCC2)cc1,41.8%,"1.3 µM [rising, single point]","18.4 µM [rising, single point]"
Cc1ccc(NC(=O)c2sc3nc(C)nc(N4CCN(c5ccccn5)CC4)c3c2C)c(C)c1,21.6%,–,"1.16 µM [rising, partial curve, poor fit]"
C/C(=N/Nc1nc(C)cc(-c2ccccc2)n1)c1ccco1,-4.86%,"0.461 µM [rising, full curve]","6.51 µM [rising, partial curve]"
CC(C)(C)n1nnnc1C(c1ccncc1)N1CCN(C2CCCCC2)CC1 (stereo not drawn),10.3%,–,"6.51 µM [falling, partial curve]"
Cc1ccc(C)c(NC(=O)NNC(=O)CCc2ccccc2)c1,–,–,"1.16 µM [rising, full curve]"
COc1ccc(S(=O)(=O)NCCSCc2cccc(C)c2)cc1Br,123%,"23.1 µM [rising, partial curve, poor fit]","0.517 µM [rising, partial curve, poor fit]"
CC(C)Cc1ccc(/C(=N/O)C(=O)O)s1,-24.3%,–,"29.1 µM [falling, single point]"
O=c1c2ccccc2nc2n1C(CSc1ccc(F)cc1)CS2 (stereo not drawn),2.96%,–,"0.82 µM [rising, partial curve]"
O=C(c1ccc(Cl)c([N+](=O)[O-])c1)N(Cc1cccc(Cl)c1)C1CCS(=O)(=O)C1 (stereo not drawn),-22.2%,–,"13 µM [falling, partial curve]"
CCc1ccc(C(=O)COC(=O)CNC(=O)c2ccc(Br)o2)cc1,26.1%,–,–
CC(NC(=O)Nc1ccc(Br)cc1)C(C)(C)C (stereo not drawn),-10.2%,–,"29.1 µM [falling, single point]"
